Assay results taken from patent US20230279117A1.
Positions count from the first letter of the chain named. These are yes or no findings as the source states them, for the method shown. Some binding calls cover weakened binding; strength is not graded here. Values belong to the binder of their own block, whether it stands above or below them.

Protein sequences, listed by entry. Tags and fused reporters are not part of them. Lines headed by an entry give the natural chain unless they say otherwise; changes in a name come on top.
UniProt Q9NZQ7: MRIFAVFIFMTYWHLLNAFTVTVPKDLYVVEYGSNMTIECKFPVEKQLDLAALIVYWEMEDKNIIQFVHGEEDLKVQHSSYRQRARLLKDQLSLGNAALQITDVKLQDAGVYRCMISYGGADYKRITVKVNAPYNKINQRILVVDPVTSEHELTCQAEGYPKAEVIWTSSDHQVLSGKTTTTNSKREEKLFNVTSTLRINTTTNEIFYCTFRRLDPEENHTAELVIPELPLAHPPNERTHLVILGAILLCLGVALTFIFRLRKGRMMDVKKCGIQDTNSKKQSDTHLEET

Biological target: human PD-L1-ECD/His (human) (UniProt Q9NZQ7)
Experiment: SPR, Fab

- binding: binds
B1: hu333-4A2 Fab (Fab, not shown: a dimerising Fc or GST)
heavy (part 1 of 2): EVQLVESGGGLVQPGGSLRLSCAVSGFSLTSYGVHWVRQAPGKGLEWVAVIWAGGSTNYVDSVKGRFTISKDNAKNTVYLQMNSLRAEDTAVYYCAKPYGTSAMDYWGQGTLVTVSS
heavy (part 2 of 2): HHHHHH
light: DIQMTQSPSSLSASVGDRVTITCKASQDVGIVVAWYQQKPGKAPKLLIYWASIRHTGVPSRFSGSGSGTEFTLTISSLQPDDFATYYCQQYSNYPLYTFGQGTKVEIK

- binding: binds
B2: hu333-4B2 Fab (Fab, not shown: a dimerising Fc or GST)
heavy (part 1 of 2): B1 heavy (part 1 of 2) with V60A, N73T, A74S
heavy (part 2 of 2): HHHHHH
light: B1 light
